Publication PMC3206076, “Structural, Stability, Dynamic and Binding Properties of the ALS-Causing T46I Mutant of the hVAPB MSP Domain as Revealed by NMR and MD Simulations” (PLoS ONE, 2011)

Protein sequences, listed by entry. Tags and fused reporters are not part of them. Lines headed by an entry give the natural chain unless they say otherwise; changes in a name come on top.
UniProt P54764: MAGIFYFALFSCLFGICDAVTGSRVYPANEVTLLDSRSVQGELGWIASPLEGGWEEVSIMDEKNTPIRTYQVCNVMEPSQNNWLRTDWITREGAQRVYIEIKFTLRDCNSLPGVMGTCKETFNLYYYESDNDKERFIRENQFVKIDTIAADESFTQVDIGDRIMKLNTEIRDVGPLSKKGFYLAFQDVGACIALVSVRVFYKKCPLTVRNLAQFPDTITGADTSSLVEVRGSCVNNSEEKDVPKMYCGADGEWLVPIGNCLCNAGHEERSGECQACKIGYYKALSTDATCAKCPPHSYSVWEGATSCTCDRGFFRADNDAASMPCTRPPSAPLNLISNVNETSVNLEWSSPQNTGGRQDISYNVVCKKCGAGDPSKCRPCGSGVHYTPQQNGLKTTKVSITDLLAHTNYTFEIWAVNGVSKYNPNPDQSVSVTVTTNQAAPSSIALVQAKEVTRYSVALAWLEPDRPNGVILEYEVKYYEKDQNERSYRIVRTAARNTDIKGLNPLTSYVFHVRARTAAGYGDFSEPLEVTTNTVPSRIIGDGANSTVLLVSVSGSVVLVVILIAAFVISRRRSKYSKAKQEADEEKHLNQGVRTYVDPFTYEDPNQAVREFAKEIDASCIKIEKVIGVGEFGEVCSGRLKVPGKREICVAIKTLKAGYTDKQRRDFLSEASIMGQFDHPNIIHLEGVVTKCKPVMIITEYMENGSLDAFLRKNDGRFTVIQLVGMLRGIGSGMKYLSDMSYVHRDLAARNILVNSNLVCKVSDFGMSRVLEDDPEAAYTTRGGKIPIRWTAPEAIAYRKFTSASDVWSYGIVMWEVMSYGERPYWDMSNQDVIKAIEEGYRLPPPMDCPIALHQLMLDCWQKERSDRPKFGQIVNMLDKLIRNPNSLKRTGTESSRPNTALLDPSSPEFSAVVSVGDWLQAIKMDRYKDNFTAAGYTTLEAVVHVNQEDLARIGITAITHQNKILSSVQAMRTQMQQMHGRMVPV

Target: EphA4 ligand-binding domain (181 residues) (UniProt P54764)
Test: NMR titration; 1H-15N HSQC of 15N-labeled EphA4 ligand-binding domain (100 µM) without or with unlabeled WT- or T46I-MSP (ratios 1:0.5 to 1:8) or Nir2 peptide (up to 1:10); 25°C; both purified

B1: Nir2 peptide (EEEFFDAHE) (peptide)
peptide: EEEFFDAHE
notes: FFAT-motif peptide of the Nir2 protein; also called the peptide; source: synthetic peptide, bought: Genesis Biotech Inc., further purified by HPLC (reverse-phase C18)
binding: no binding (tested: ratio of 1∶10 (EphA4/Nir2))

Results are given in words; binding and its absence hold for the method and conditions named.
